Data as given in PubChem BioAssay AID2685 (National Center for Advancing Translational Sciences (NCATS), 2010).
Some of the results follow. Further columns of the screen follow, without active or inactive calls. Compounds called inactive in the main read-out are mostly missing here. The note in brackets gives the kind of curve behind each potency; many fits are weak.

Assay: qHTS Assay for Lipid Storage Modulators in Drosophila S3 Cells;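 on cell number change: cells counted by Cell Tracker Red CMTPX staining in the red channel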
Settings: BODIPY lipid droplet fluorescence, 18-24 h; for cell number change: measured here: cell count max response, cells fed with added oleic acid
In short: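 Drosophila S3 cells loaded with oleic acid (400 uM, as added) and compounds at several concentrations; lipid droplets imaged by 488-nm laser-scanning cytometry, 500–530 nm intensity and object ratio to cell channel. Percent activity normalized to 20 uM Triacsin C.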

[1] = measured here: cell number channel AC50, cells fed with added oleic acid
[2] = measured here: lipid fluorescence (Fed channel) AC50, cells fed with added oleic acid

Row | Structure (SMILES) | cell number change | AC50 [1] | AC50 [2]
1 | CCN(CC)c1ccc(-c2nn3c(-c4ccccc4OC)nnc3s2)cc1 | -45.4% | 8.2 µM [falling, partial curve, poor fit] | 6.51 µM [falling, partial curve]
2 | CCCOC(=O)CSc1nc(N)c(C#N)c(CC)c1C#N | 20.9% | – | 16.4 µM [rising, single point]
3 | COc1ccccc1C(=O)NCc1ccc(-c2nc3ccccc3s2)cc1 | 4.64% | – | 10.3 µM [rising, partial curve]
4 | CCc1ccccc1N(CC(=O)N1CCCCCC1)S(C)(=O)=O | -10.8% | – | 6.51 µM [rising, full curve]
5 | CC1CCCCN1S(=O)(=O)c1ccc(C(=O)Nc2ccccc2-c2nc3ccccc3s2)cc1 (centres undefined) | 5.34% | – | 0.184 µM [rising, full curve, poor fit]
6 | O=C(Nc1cccc([N+](=O)[O-])c1)c1ccc2ccccc2c1O | -36.6% | 20.6 µM [falling, single point] | 16.4 µM [falling, single point]
7 | N#Cc1ccccc1CN1C(=O)NC(Cc2c[nH]c3ccccc23)C1=O (centres undefined) | 31% | 29.1 µM [rising, single point] | –
8 | COC(=O)c1cccc(NC(=O)Cc2ccc(OC)cc2)c1C | – | 0.0651 µM [rising, full curve] | 0.184 µM [rising, partial curve]
9 | CCC(=O)Nc1cc(NC(=O)CSc2ncc(-c3ccc(F)cc3)n2Cc2ccco2)ccc1C | -4.81% | – | 0.116 µM [rising, full curve, poor fit]
10 | CCCc1nnc(NC(=O)CCC(=O)N2CCN(S(=O)(=O)c3ccc(OC)cc3)CC2)s1 | 12.5% | – | 0.00461 µM [rising, full curve, poor fit]
11 | CC(C)(CN=C1NS(=O)(=O)c2ccccc21)CNC(=O)CN1C(=O)c2ccccc2C1=O | -10.4% | – | 0.00411 µM [rising, full curve, poor fit]
12 | Cc1cc(=O)oc(C)c1C(=O)OCC(=O)c1ccc2ccccc2c1 | – | 6.51 µM [rising, single point] | –
13 | Cc1ccccc1NC(=O)Cn1cnc2c(oc3ccccc32)c1=O | 34.2% | 0.0517 µM [rising, full curve, poor fit] | 6.51 µM [rising, partial curve, poor fit]
14 | COc1ccccc1-c1c(C)oc2c(CN3CCCC(C)C3)c(O)ccc2c1=O (centres undefined) | 8.33% | – | –
15 | CCCCC(CC)CNC(=O)c1[nH]c(C)c(C(C)=O)c1C (centres undefined) | -34.6% | 16.4 µM [falling, single point] | –
16 | Cn1/c(=N\NC(=O)c2ccccc2Cl)sc2ccccc21 | 6.61% | 7.31 µM [rising, partial curve, poor fit] | 0.411 µM [falling, single point]
17 | CC(C)(C)NC(=O)CSc1nc(-c2ccccc2)c(-c2ccccc2)[nH]1 | -34.7% | – | –
18 | CC1=C(C(=O)Nc2ccccc2C)C(c2cccs2)NC(=S)N1 (centres undefined) | 6.03% | – | 3.66 µM [rising, single point]
19 | COCc1cc(C)nc(SCc2ccc(Cl)cc2)c1C#N | – | – | 29.1 µM [falling, single point]
20 | CC(C)CN=Cc1c(O)c([N+](=O)[O-])cc2oc3c(c12)CCCC3 | -36.5% | 29.1 µM [falling, single point] | –

Row | Structure (SMILES) | cell number change | AC50 [1] | AC50 [2]
21 | O=C(CSc1nccc(=O)[nH]1)N1CCc2ccccc2C1 | 19.9% | – | 6.51 µM [falling, single point]
22 | O=S(=O)(c1ccc(F)cc1)N1CCN(C(=S)NCc2ccccc2)CC1 | – | 0.103 µM [falling, single point] | 0.092 µM [falling, single point]
23 | O=C(Nc1ccccc1)Nc1ccc(Br)c(Cl)c1 | -46.4% | 32.6 µM [falling, single point] | 25.9 µM [falling, single point]
24 | CCOC(=O)NC(=O)CN1C(=O)NC2(CCc3ccccc32)C1=O (centres undefined) | 0.952% | – | 0.206 µM [rising, single point]
25 | Cc1ccc(C(=O)OCCN2CCN(c3ncc(C(F)(F)F)cc3Cl)CC2)cc1 | -5.13% | – | 3.66 µM [falling, single point]
26 | FC(F)(F)c1ccccc1/C=N/n1c(COc2ccccc2)n[nH]c1=S | -16.7% | – | 13 µM [rising, partial curve]
27 | CCOc1ccc(OCCOC(=O)CN2C(=O)NC3(CCCC3)C2=O)cc1 | -25% | 1.64 µM [rising, partial curve] | –
28 | Cc1ccccc1C(=O)N1CCC(C(=O)OCc2nc(N)nc(Nc3ccccc3)n2)CC1 | -3.13% | – | 6.51 µM [rising, single point]
29 | CC(=O)Nc1ccc(-c2csc(Nc3ccc(Cl)cn3)n2)cc1 | 93.9% | 2.59 µM [rising, full curve] | 3.26 µM [rising, full curve]
30 | CC(C(=O)O)C1SC(=O)NC1=O (centres undefined) | -4.93% | – | 20.6 µM [falling, partial curve]
31 | COc1ccc(C2CC(c3ccc4ccccc4c3)=NN2C(=O)CNC2CCCCC2)cc1 (centres undefined) | -19% | 0.00461 µM [rising, full curve, poor fit] | –
32 | COc1ccc(Cc2noc(-c3ccc([N+](=O)[O-])cc3)n2)cc1OC | 5.12% | 3.26 µM [rising, single point] | –
33 | Cc1ccc(-c2nc(CSCC(=O)Nc3cc(C)on3)c(C)o2)cc1 | 20.5% | – | 0.461 µM [rising, full curve]
34 | CCOc1ccc(CCNC(=O)COC(=O)c2cc(S(=O)(=O)N3CCOCC3)ccc2F)cc1OCC | -6.52% | – | 29.1 µM [falling, single point]
35 | CCCn1c(C)cc(C(=O)CSc2nc3nc(C)cc(C)n3n2)c1C | 19.7% | – | 29.1 µM [rising, single point]
36 | COc1ccc(/C=C(/NC(=O)c2ccco2)C(=O)N2CCCCCC2)cc1OC | -0.668% | – | 25.9 µM [rising, single point]
37 | CC(=O)N1CC(C)Sc2ccc(S(=O)(=O)NCCc3ccc(C)cc3)cc21 (centres undefined) | – | – | 3.26 µM [falling, full curve]
38 | CCS(=O)(=O)c1ccc(O)c(NC(=O)NC2CCCCC2)c1 | -18.6% | – | 2.06 µM [falling, full curve, poor fit]
39 | COc1ccc(C(=O)NCCCNC(=O)c2cccnc2)cc1OC | -4.76% | – | 10.3 µM [falling, partial curve, poor fit]
40 | N#CC(=C1CCCC1)c1nc(-c2ccccc2O)cs1 | 41% | 10.3 µM [rising, partial curve] | –

Row | Structure (SMILES) | cell number change | AC50 [1] | AC50 [2]
41 | N#CCSc1nc2[nH]ncc2c(=O)n1-c1ccccc1Br | 20.8% | 1.46 µM [rising, full curve, poor fit] | 0.517 µM [rising, full curve, poor fit]
42 | COc1ccc(-c2[nH]c(-c3ccc(C)cc3)nc2SCC(=O)NC2CCCC2)cc1 | -18.7% | – | –
43 | CC1N(C(=O)N2CCOCC2)CCN1S(=O)(=O)c1cccc(C(F)(F)F)c1 (centres undefined) | 4.17% | – | –
44 | Fc1ccc(-n2c(CN3CCCCC3)n[nH]c2=S)cc1 | – | – | 0.58 µM [falling, single point]
45 | COCc1nnc(NC(=O)CCc2ccc(OC)cc2)s1 | 11.9% | – | –
46 | CC12CCC(=O)N1C(C(=O)N1CCN(S(=O)(=O)c3cccc(Cl)c3)CC1)CS2 (centres undefined) | 43.8% | 29.1 µM [rising, single point] | –
47 | CCOC(=O)c1cc(-c2ccccc2C)nn1CC1CC(c2ccc(OC)cc2)=NO1 (centres undefined) | -45.8% | 29.1 µM [falling, partial curve, poor fit] | –
48 | COc1ccc(NC(=O)CC(c2ccc(F)cc2)c2ccc(OC(C)C)cc2)cc1 (centres undefined) | -0.785% | – | 0.13 µM [rising, full curve, poor fit]
49 | CCO/C(C)=N/n1c2nc3ccccc3nc2c2c(=O)n(C3CCCC3)c(C)nc21 | 24.5% | – | –
50 | CCN(CCCNC(=O)CN1C(=O)COc2ccc(S(=O)(=O)N3CCC(C)CC3)cc21)Cc1ccccc1 | 0.917% | – | 0.651 µM [falling, single point]
51 | CCOc1ccccc1NC(=S)NC(=O)C1CC1 | – | – | 3.26 µM [falling, partial curve, poor fit]
52 | COc1ccc(CNC(=O)C2CCN(c3nc(-c4ccccc4)nc4c3CCC4)CC2)cc1 | 3.25% | – | 29.1 µM [falling, single point]
53 | O=C(O)c1nc(N2CCCCC2)ncc1Cl | -43.5% | 16.4 µM [falling, partial curve] | 14.6 µM [falling, partial curve]
54 | CCCc1nc2oc3cc(OC)ccc3c(=O)c2c(=O)n1CCc1ccccc1 | 29.9% | – | 0.461 µM [rising, full curve]
55 | COCCCNC(=O)C1CCN(c2nc(C)cc(C)n2)CC1 | 0.711% | – | 1.16 µM [falling, full curve, poor fit]
56 | O=C(CC1CCCCC1)NCc1nc(-c2ccccc2)no1 | 17.4% | – | 13 µM [falling, partial curve, poor fit]
57 | CCOC(=O)c1ccc(N2C(=O)C(O)=C(C(C)=O)C2c2ccc([N+](=O)[O-])cc2)cc1 (centres undefined) | 0.275% | – | –
58 | COCCN(C(=O)CSc1nnc(Nc2ccc(C)cc2)s1)c1c(N)n(CC(C)C)c(=O)[nH]c1=O | – | – | 23.1 µM [rising, single point]
59 | CCOC(=O)c1ccc(NC(=O)C(C)Sc2nc(O)c(-c3ccccc3)c(=O)[nH]2)cc1 (centres undefined) | -33.3% | 29.1 µM [falling, single point] | 29.1 µM [falling, single point]
